In patent publication US20100311749A1, “4-BENZOYL-1-SUBSTITUTED-PIPERAZIN-2-ONE DERIVATIVES AS P2X7 MODULATORS” (priority 2007, published 2010):
Some results were stated once for a whole list of compounds, not compound by compound.

The molecules below were run against T1, human P2X7 receptor (Homo sapiens, UniProt Q99572) (assay: Fluorescent Imaging Plate Reader (FLIPR) Ca Assay). Conditions: HEK293 or U-2OS cells expressing human recombinant P2X7 receptors; BzATP close to EC80; values given as 'about'.
T1 construct: expressed in transfected cells
T1 sequence (Q99572 1-595): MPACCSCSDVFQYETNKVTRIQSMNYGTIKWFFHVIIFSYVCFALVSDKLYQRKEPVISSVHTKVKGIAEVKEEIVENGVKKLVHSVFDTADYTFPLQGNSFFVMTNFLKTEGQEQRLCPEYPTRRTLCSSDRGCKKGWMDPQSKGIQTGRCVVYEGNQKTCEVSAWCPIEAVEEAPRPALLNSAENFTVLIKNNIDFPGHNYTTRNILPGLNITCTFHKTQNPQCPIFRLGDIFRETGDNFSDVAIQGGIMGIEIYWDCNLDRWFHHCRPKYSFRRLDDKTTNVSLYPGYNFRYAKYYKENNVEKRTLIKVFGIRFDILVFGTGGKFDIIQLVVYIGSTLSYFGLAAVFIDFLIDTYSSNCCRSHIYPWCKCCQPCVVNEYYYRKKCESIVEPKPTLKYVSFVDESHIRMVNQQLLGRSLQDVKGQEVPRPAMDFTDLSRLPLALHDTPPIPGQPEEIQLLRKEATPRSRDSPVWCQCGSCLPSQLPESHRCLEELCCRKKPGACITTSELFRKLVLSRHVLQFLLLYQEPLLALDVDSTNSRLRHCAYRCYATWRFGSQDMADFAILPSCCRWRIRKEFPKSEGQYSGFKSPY
Type: cell-based

| SMILES | pIC50 for human P2X7 receptor antagonist activity (blocking BzATP responses) in the FLIPR Ca Assay |
| --- | --- |
| O=C(c1ccc(Cl)cc1Cl)N1CCN(c2ccc(F)cc2F)C(=O)C1 [Example 20, 4-[(2,4-Dichlorophenyl)carbonyl]-1-(2,4-difluorophenyl)-2-piperazinone] | ≥ 5.5 |
| Cc1ccc(-c2ccc(C)c(N3CCN(C(=O)c4cccc(C(F)(F)F)c4Cl)CC3=O)c2)cn1.Cl [Example 74, 4-{[2-chloro-3-(trifluoromethyl)phenyl]carbonyl}-1-[2-methyl-5-(6-methyl-3-pyridinyl)phenyl]-2-piperazinone hydrochloride] | ≥ 5.0 |
| Cl.O=C1CN(C(=O)c2cccc(C(F)(F)F)c2Cl)CCN1Cc1cccnc1 [Example 68, 4-{[2-chloro-3-(trifluoromethyl)phenyl]carbonyl}-1-(3-pyridinylmethyl)-2-piperazinone hydrochloride] | ≥ 5.0 |
| O=C(c1ccc(F)c(Cl)c1F)N1CCN(c2ccc(F)cc2Cl)C(=O)C1 [Example 60, 4-[(3-chloro-2,4-difluorophenyl)carbonyl]-1-(2-chloro-4-fluorophenyl)-2-piperazinone] | ≥ 5.0 |
| CC(C)c1ccccc1N1CCN(C(=O)c2cccc(Cl)c2Cl)CC1=O [Example 27, 4-[(2,3-dichlorophenyl)carbonyl]-1-[2-(1-methylethyl)phenyl]-2-piperazinone] | ≥ 5.0 |
| CC(C)c1ccccc1N1CCN(C(=O)c2ccc(F)cc2Cl)CC1=O [Example 26, 4-[(2-chloro-4-fluorophenyl)carbonyl]-1-[2-(1-methylethyl)phenyl]-2-piperazinone] | ≥ 5.0 |
| N#CCCN1CCN(C(=O)c2cccc(C(F)(F)F)c2Cl)CC1=O [Example 71, 3-(4-{[2-chloro-3-(trifluoromethyl)phenyl]carbonyl}-2-oxo-1-piperazinyl)propanenitrile] | ≥ 5.0 |
| Cc1c(N2CCCC2)cccc1N1CCN(C(=O)c2cccc(C(F)(F)F)c2Cl)CC1=O [Example 75, 4-{[2-chloro-3-(trifluoromethyl)phenyl]carbonyl}-1-[2-methyl-3-(1-pyrrolidinyl)phenyl]-2-piperazinone] | ≥ 5.0 |
| O=C(c1c(Cl)cc(Cl)cc1Cl)N1CCN(c2cc(N3CCOCC3)ccc2Cl)C(=O)C1 [Example 77, 1-[2-chloro-5-(4-morpholinyl)phenyl]-4-[(2,4,6-trichlorophenyl)carbonyl]-2-piperazinone] | ≥ 5.0 |
| O=C1CN(C(=O)c2cccc(C(F)(F)F)c2Cl)CCN1CC(F)(F)F [Example 62, 4-{[2-chloro-3-(trifluoromethyl)phenyl]carbonyl}-1-(2,2,2-trifluoroethyl)-2-piperazinone] | ≥ 5.0 |
| O=C(c1ccc(F)cc1Cl)N1CCN(c2ccccc2Cl)C(=O)C1 [Example 5, 4-[(2-Chloro-4-fluorophenyl)carbonyl]-1-(2-chlorophenyl)-2-piperazinone] | ≥ 5.5 |
| O=C1CN(C(=O)c2cccc(C(F)(F)F)c2Cl)CCN1CC1CCCO1 (centres unmarked) [Example 70, 4-{[2-chloro-3-(trifluoromethyl)phenyl]carbonyl}-1-(tetrahydro-2-furanylmethyl)-2-piperazinone] | ≥ 5.0 |
| O=C(c1c(Cl)cccc1Cl)N1CCN(c2ccc(F)cc2Cl)C(=O)C1 [Example 31, 1-(2-chloro-4-fluorophenyl)-4-[(2,6-dichlorophenyl)carbonyl]-2-piperazinone] | ≥ 5.0 |
| CCCN1CCN(C(=O)c2cccc(C(F)(F)F)c2Cl)CC1=O [Example 49, 4-{[2-chloro-3-(trifluoromethyl)phenyl]carbonyl}-1-propyl-2-piperazinone] | ≥ 5.0 |
